Measured values as given in patent publication US20080207643A1, “Composition for Treating Hyperlipaemia” (priority 2004, published 2008).

Tests used:
[1] = tested on: normal rats; experiment: Effects on the blood lipid level in the normal rats; type: in vivo, Wistar rats; details: gavage 4 days
Method: Wistar rats, bred by the Medical Experimental Animal Centre of Chinese Academy of Military Medical Sciences, certificate No. […] By calculating in accordance with the principle of dosage equivalent per body surface area, the above mentioned generally used dosage for human was converted into the dosage for rats of about 50 mg/kg/day. […] By calculating in accordance with the principle of dosage equivalent per body surface area, the above mentioned generally used dosage for human was converted into the dosage for rats of about 0.85 mg/kg/day.

[2] = tested on: hyperlipemia rat model; experiment: Effects on the blood lipid level in hyperlipemia model rats (high lipid containing feed); type: in vivo, Wistar rats; details: gavage 14 days
Source text: Each group included 10 rats. […] The measurement is the same as the experiment conducted on normal rats as described in section 5.4.

[3] = tested on: hyperlipemia rat model; experiment: Comparison of the different formulations of acipimox in combination with atorvastatin calcium on hyperlipemia of rats; type: in vivo, Wistar rats; details: comparison test, gavage 14 days
Source text: The level of serum total cholesterol level was respectively measured before grouping, and then randomly grouping by following the balance principle. Each group included 10 rats.

[4] = tested on: plasma concentration of methyl dihydroxyl valeric acid (MVA); details: 80 mg/d; cited from earlier work
[5] = tested on: hyperlipemia patients; details: 80 mg/d, 22 hyperlipemia patients; cited from earlier work

## CC(C)c1c(C(=O)Nc2ccccc2)c(-c2ccccc2)c(-c2ccc(F)cc2)n1CC[C@@H](O)C[C@@H](O)CC(=O)O [Atorvastatin calcium, calcium [R-(R′,R′)]2-(4-fluorophenyl)-βδ-dihydroxyl-5-(1-methylethyl)-3-phenyl-4-[aniline]carbonyl]-1-hydro-pyrrolyl-1-heptanoate trihydrate]
[1]; atorvastatin calcium 2.5 mg/kg
  High density lipoprotein-cholesterol: 0.99 ± 0.11 mmol/L
  Low density lipoprotein-cholesterol: 0.30 ± 0.14 mmol/L
[1]; atorvastatin calcium 5 mg/kg
  High density lipoprotein-cholesterol: 0.96 ± 0.11 mmol/L
  Low density lipoprotein-cholesterol: 0.25 ± 0.16 mmol/L
[1]; atorvastatin calcium 10 mg/kg
  High density lipoprotein-cholesterol: 1.03 ± 0.24 mmol/L
  Low density lipoprotein-cholesterol: 0.23 ± 0.09 mmol/L
[1]; atorvastatin calcium 20 mg/kg
  High density lipoprotein-cholesterol: 1.05 ± 0.13 mmol/L
  Low density lipoprotein-cholesterol: 0.21 ± 0.09 mmol/L
[1]; atorvastatin calcium 30 mg/kg
  High density lipoprotein-cholesterol: 1.08 ± 0.18 mmol/L
  Low density lipoprotein-cholesterol: 0.19 ± 0.12 mmol/L
[2]; atorvastatin calcium 2.5 mg/kg
  Low density lipoprotein-cholesterol: 8.87 ± 0.74 mmol/L
[2]; atorvastatin calcium 5 mg/kg
  Low density lipoprotein-cholesterol: 8.17 ± 0.80 mmol/L
[2]; atorvastatin calcium 10 mg/kg
  Low density lipoprotein-cholesterol: 8.07 ± 0.55 mmol/L
[2]; atorvastatin calcium 20 mg/kg
  Low density lipoprotein-cholesterol: 7.78 ± 0.26 mmol/L
[2]; atorvastatin calcium 30 mg/kg
  Low density lipoprotein-cholesterol: 7.98 ± 0.60 mmol/L
[3]; atorvastatin calcium 10 mg/kg
  Low density lipoprotein-cholesterol: 7.30 ± 1.88 mmol/L
[3]; atorvastatin calcium 20 mg/kg
  Low density lipoprotein-cholesterol: 6.80 ± 1.66 mmol/L
[4]
  reduce the plasma concentration of methyl dihydroxyl valeric acid (MVA): 59%
[5]
  decreases the plasma viscosity: 10%
